This is one part of the list.
Compound: CC1Cc2ccccc2N1C(=O)C1CCCN(C1)C(=O)CCl (mixture of isomers) [TRIM25 ligand 11 (diastereomer mixture)]
Assay: probe-labelled cysteine peptide fold change vs DMSO (competition) (log2 fold change); higher = less target engagement (more negative = stronger competition)
Conditions: THP-1, incubation time: 4 h
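Further: competitive chemoproteomic profiling in live THP-1 cells with an iodoacetamide desthiobiotin (IA-DTB) probe, comparing probe-labelled peptide intensities in compound-treated cells against DMSO-treated controls.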

Chains of the proteins cited; added tags and fusions are not shown. Lines headed by an entry give the natural chain unless they say otherwise; changes in a name come on top.
UniProt Q96T88: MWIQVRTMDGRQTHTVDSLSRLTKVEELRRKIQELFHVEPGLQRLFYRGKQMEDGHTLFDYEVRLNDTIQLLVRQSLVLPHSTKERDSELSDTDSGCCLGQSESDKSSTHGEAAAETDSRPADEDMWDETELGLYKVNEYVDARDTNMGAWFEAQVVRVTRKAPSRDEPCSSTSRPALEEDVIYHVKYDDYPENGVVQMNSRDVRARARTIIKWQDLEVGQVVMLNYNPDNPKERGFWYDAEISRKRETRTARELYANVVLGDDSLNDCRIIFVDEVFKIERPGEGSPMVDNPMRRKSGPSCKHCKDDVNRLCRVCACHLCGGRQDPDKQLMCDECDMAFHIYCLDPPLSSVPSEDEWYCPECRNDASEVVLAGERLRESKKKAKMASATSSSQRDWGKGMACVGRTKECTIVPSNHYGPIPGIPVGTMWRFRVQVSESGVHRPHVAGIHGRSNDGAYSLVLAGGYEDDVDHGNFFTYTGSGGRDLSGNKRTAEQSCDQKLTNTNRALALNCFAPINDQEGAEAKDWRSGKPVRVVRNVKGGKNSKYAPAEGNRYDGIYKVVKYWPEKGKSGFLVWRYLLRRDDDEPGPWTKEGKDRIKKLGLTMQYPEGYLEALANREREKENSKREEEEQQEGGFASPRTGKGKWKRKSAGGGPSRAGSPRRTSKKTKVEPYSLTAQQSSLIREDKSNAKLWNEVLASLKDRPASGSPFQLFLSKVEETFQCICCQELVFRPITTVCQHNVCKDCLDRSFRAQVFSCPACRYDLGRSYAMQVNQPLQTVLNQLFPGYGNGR
UniProt Q13107: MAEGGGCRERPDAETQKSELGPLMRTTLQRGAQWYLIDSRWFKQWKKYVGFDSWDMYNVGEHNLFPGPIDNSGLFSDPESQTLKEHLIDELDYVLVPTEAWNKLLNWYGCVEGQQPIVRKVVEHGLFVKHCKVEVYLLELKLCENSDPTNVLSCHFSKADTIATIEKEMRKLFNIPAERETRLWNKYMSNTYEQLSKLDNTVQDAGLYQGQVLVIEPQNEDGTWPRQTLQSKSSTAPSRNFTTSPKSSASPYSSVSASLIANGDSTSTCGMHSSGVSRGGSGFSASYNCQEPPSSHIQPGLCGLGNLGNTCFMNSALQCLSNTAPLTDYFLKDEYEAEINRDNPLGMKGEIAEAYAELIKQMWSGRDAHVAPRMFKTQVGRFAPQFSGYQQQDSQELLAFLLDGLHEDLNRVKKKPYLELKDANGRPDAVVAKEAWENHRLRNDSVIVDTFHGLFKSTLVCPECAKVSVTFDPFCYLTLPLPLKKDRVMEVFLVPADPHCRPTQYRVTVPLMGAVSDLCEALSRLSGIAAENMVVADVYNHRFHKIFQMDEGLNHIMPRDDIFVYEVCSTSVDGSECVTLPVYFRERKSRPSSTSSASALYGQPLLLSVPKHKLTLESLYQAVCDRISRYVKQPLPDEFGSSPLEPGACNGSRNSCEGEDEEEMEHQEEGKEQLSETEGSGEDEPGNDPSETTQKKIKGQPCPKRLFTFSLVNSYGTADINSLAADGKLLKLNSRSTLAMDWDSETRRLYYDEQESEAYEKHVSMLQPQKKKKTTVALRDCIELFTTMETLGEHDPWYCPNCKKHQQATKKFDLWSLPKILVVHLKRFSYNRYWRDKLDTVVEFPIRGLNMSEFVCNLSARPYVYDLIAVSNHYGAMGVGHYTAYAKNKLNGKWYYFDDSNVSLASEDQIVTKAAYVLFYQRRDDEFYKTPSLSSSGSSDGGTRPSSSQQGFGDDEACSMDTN
UniProt O60287: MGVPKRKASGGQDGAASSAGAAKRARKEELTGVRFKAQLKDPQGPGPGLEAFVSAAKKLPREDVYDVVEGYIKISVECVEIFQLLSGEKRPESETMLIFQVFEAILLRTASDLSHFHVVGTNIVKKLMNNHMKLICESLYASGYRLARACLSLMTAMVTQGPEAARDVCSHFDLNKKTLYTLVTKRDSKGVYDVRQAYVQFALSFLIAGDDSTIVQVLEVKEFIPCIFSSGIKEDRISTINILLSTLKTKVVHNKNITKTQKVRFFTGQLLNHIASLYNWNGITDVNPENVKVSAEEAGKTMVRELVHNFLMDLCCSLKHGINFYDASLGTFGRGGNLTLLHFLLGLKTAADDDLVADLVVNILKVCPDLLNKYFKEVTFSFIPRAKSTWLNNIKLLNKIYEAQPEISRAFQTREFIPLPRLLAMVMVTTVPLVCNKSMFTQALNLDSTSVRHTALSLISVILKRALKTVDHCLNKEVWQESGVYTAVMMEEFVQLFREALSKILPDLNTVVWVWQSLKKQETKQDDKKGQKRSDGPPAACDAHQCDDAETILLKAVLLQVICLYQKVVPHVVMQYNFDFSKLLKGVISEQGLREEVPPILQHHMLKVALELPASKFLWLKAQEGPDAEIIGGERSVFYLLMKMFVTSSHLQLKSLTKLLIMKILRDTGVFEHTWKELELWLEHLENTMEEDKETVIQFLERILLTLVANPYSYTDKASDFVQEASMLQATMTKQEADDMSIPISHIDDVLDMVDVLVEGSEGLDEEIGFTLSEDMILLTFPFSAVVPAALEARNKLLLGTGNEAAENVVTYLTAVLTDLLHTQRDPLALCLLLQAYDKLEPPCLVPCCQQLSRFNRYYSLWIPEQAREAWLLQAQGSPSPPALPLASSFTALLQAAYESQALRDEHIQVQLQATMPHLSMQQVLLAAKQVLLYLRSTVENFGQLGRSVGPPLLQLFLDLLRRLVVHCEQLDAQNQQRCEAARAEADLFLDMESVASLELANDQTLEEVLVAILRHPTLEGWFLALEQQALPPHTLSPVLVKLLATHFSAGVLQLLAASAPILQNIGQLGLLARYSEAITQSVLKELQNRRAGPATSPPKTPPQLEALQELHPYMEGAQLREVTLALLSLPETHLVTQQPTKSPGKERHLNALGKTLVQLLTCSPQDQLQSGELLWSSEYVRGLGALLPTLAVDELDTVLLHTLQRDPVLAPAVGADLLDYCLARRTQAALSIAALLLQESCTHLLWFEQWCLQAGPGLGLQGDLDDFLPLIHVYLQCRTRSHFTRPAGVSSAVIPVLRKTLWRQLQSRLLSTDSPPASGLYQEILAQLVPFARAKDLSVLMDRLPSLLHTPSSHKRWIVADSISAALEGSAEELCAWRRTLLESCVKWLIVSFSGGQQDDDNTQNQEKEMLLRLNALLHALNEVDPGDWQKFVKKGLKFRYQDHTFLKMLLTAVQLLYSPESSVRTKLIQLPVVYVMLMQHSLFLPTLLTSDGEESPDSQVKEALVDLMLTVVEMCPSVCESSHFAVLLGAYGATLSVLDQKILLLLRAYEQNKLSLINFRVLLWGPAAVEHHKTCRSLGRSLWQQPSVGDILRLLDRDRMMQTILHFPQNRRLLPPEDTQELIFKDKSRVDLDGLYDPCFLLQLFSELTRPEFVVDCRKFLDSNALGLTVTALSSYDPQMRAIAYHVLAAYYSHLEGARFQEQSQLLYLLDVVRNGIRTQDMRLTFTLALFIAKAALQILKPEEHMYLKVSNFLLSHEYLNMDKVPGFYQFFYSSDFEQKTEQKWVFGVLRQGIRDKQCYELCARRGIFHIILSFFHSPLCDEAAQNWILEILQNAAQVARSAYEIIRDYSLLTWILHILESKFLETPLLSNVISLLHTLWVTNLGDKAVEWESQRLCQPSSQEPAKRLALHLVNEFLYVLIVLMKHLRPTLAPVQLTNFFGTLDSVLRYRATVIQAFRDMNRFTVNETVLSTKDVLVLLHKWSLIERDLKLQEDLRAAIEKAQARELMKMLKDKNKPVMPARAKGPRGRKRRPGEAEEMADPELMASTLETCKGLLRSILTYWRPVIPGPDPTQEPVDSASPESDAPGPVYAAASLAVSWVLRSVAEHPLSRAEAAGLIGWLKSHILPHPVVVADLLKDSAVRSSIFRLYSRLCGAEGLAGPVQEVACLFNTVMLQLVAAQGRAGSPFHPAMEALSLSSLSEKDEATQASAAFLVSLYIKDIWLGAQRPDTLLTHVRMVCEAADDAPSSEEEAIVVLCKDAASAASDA
UniProt Q9Y4E8: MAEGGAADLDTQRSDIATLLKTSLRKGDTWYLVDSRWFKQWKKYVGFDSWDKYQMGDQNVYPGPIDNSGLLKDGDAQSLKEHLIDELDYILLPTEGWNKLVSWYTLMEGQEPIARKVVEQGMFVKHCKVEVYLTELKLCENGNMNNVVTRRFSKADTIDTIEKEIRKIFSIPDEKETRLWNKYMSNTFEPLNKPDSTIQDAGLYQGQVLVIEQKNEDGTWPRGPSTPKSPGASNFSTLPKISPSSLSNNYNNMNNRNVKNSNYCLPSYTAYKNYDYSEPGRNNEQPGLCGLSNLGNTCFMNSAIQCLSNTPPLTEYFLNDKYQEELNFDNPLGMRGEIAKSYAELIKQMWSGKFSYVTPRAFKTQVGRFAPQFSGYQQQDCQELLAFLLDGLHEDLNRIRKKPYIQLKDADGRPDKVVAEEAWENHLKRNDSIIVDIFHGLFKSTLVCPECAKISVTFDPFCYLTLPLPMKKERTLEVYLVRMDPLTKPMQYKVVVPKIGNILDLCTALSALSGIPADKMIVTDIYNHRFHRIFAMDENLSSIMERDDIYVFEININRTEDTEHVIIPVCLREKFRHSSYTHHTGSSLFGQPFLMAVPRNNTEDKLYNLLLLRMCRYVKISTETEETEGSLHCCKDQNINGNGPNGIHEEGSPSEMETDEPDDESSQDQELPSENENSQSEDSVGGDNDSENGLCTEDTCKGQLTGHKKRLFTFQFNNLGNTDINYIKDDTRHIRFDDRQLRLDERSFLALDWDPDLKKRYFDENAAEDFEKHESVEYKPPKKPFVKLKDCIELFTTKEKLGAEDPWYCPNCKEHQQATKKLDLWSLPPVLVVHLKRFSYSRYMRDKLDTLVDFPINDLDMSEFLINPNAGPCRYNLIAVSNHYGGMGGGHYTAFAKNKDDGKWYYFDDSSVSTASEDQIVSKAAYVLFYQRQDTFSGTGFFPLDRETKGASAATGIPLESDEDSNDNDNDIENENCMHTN
UniProt Q9NVE5: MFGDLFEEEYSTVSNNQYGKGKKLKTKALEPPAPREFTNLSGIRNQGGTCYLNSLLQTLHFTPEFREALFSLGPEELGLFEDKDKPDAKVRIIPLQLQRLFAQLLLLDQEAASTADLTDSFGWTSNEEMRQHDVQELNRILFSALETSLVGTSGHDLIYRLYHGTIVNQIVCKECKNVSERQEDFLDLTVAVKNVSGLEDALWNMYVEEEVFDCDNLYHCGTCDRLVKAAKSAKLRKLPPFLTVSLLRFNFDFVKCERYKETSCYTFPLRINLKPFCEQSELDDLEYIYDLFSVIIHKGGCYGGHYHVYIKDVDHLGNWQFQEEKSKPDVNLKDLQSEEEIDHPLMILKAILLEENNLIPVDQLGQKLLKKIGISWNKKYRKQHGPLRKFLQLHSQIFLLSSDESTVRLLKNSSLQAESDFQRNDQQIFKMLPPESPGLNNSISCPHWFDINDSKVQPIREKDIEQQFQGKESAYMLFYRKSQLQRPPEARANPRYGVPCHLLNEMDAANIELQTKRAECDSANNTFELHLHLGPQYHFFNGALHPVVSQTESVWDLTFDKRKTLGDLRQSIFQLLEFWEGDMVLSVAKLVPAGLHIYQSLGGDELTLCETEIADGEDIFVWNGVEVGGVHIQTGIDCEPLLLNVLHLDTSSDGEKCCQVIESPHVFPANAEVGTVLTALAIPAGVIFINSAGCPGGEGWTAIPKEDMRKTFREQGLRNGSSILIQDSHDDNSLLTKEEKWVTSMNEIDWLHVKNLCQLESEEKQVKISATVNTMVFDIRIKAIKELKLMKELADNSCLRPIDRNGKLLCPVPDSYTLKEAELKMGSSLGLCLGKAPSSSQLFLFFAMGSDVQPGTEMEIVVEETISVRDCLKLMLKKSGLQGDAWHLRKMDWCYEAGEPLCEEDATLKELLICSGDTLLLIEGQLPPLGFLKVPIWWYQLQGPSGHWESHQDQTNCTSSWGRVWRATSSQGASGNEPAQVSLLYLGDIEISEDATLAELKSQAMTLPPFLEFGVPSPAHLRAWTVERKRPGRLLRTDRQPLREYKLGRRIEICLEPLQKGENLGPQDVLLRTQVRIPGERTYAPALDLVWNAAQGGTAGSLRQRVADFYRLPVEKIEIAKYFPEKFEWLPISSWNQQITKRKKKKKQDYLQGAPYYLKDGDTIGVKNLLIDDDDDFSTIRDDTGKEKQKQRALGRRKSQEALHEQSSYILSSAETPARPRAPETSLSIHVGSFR
UniProt P10746: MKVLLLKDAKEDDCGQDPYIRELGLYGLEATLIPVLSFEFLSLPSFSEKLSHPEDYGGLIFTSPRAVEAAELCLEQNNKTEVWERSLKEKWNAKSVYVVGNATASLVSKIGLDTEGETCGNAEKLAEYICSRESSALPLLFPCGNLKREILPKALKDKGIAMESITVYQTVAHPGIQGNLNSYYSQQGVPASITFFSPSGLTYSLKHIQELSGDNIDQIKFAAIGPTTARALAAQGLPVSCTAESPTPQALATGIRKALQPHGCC

For “UPF3B_Q9BZI7_453_LCPPDDSTK (UniProt Q9BZI7)”, the “probe-labelled cysteine peptide fold change” value (10 µM) was -0.062 and the “probe-labelled cysteine peptide fold change” value (50 µM) was 0.0417.

For “USP22_Q9UPT9_171_KITSNCTIGLR (UniProt Q9UPT9)”, the “probe-labelled cysteine peptide fold change” value (10 µM) was 0.0229 and the “probe-labelled cysteine peptide fold change” value (50 µM) was 0.01.

For “UNC13D_Q70J99_276_GQCHLQFQLIHK (UniProt Q70J99)”, the “probe-labelled cysteine peptide fold change” value (10 µM) was 0.125 and the “probe-labelled cysteine peptide fold change” value (50 µM) was 0.135.

“URGCP_Q8TCY9_292_QWDCFWHR (UniProt Q8TCY9)” was tested, and the “probe-labelled cysteine peptide fold change” value (10 µM) was 0.118 and the “probe-labelled cysteine peptide fold change” value (50 µM) was 0.15.

In the case of “UNC45A_Q9H3U1_853_AAAGGLAMLTSMRPTLCSR (UniProt Q9H3U1)”, the “probe-labelled cysteine peptide fold change” value (10 µM) was -0.0709 and the “probe-labelled cysteine peptide fold change” value (50 µM) was -0.204.

In the case of “UPF1_Q92900_683_QLILVGDHCQLGPVVMCK (UniProt Q92900)”, the “probe-labelled cysteine peptide fold change” value (10 µM) was -0.0105 and the “probe-labelled cysteine peptide fold change” value (50 µM) was 0.054.

In the case of “UHRF1_Q96T88_302_SGPSCK (UniProt Q96T88)”, the “probe-labelled cysteine peptide fold change” value (10 µM) was -0.075 and the “probe-labelled cysteine peptide fold change” value (50 µM) was 0.0571.

For “USP48_Q86UV5_290_LLSLPCTLNLQLMR (UniProt Q86UV5)”, the “probe-labelled cysteine peptide fold change” value (10 µM) was -0.0857 and the “probe-labelled cysteine peptide fold change” value (50 µM) was -0.28.

In the case of “UFC1_Q9Y3C8_116_ICLTDHFKPLWAR (UniProt Q9Y3C8)”, the “probe-labelled cysteine peptide fold change” value (10 µM) was -0.522 and the “probe-labelled cysteine peptide fold change” value (50 µM) was -0.68.

“USP19_O94966_833_GLCRPENIGYPFLVSVPASR (UniProt O94966)” was tested, and the “probe-labelled cysteine peptide fold change” value (10 µM) was 0.0428 and the “probe-labelled cysteine peptide fold change” value (50 µM) was 0.00179.

With “UIMC1_Q96RL1_121_AIAESLNSCRPSDASATR (UniProt Q96RL1)” the “probe-labelled cysteine peptide fold change” value (10 µM) was 0.14 and the “probe-labelled cysteine peptide fold change” value (50 µM) was -0.0493.

For “USP4_Q13107_464_STLVCPECAK (UniProt Q13107)”, the “probe-labelled cysteine peptide fold change” value (10 µM) was 0.00998 and the “probe-labelled cysteine peptide fold change” value (50 µM) was -0.0406.

In the case of “URB1_O60287_226_EFIPCIFSSGIKEDR (UniProt O60287)”, the “probe-labelled cysteine peptide fold change” value (10 µM) was 0.157 and the “probe-labelled cysteine peptide fold change” value (50 µM) was 0.121.

For “USP7_Q93009_721_DLLPVMCDR (UniProt Q93009)”, the “probe-labelled cysteine peptide fold change” value (10 µM) was -0.0179 and the “probe-labelled cysteine peptide fold change” value (50 µM) was 0.0994.

With “USP16_Q9Y5T5_509_EYCVNQK (UniProt Q9Y5T5)” the “probe-labelled cysteine peptide fold change” value (10 µM) was -0.256 and the “probe-labelled cysteine peptide fold change” value (50 µM) was -0.428.

“USP15_Q9Y4E8_139_LCENGNMNNVVTR (UniProt Q9Y4E8)” was tested, and the “probe-labelled cysteine peptide fold change” value (10 µM) was 0.0928 and the “probe-labelled cysteine peptide fold change” value (50 µM) was 0.0899.

In the case of “USP24_Q9UPU5_1556_TAECETSEADNILLAGHLR (UniProt Q9UPU5)”, the “probe-labelled cysteine peptide fold change” value (10 µM) was 0.29 and the “probe-labelled cysteine peptide fold change” value (50 µM) was 0.0489.

With “USP40_Q9NVE5_50_NQGGTCYLNSLLQTLHFTPEFR (UniProt Q9NVE5)” the “probe-labelled cysteine peptide fold change” value (10 µM) was -0.26 and the “probe-labelled cysteine peptide fold change” value (50 µM) was -0.513.

“USP24_Q9UPU5_1377_LSSSGSNCSSGSEGEPVALHAGICVR (UniProt Q9UPU5)” was tested, and the “probe-labelled cysteine peptide fold change” value (10 µM) was -0.0255 and the “probe-labelled cysteine peptide fold change” value (50 µM) was -0.21.

“UCHL5_Q9Y5K5_100_QVINNACATQAIVSVLLNCTHQDVHLGETLSEFK (UniProt Q9Y5K5)” was tested, and the “probe-labelled cysteine peptide fold change” value (10 µM) was 0.0354 and the “probe-labelled cysteine peptide fold change” value (50 µM) was -0.242.

In the case of “URB2_Q14146_1380_LHNVLFSILQCHPK (UniProt Q14146)”, the “probe-labelled cysteine peptide fold change” value (10 µM) was 0.199 and the “probe-labelled cysteine peptide fold change” value (50 µM) was 0.859.

In the case of “UROS_P10746_73_AVEAAELCLEQNNKTEVWER (UniProt P10746)”, the “probe-labelled cysteine peptide fold change” value (10 µM) was -0.265 and the “probe-labelled cysteine peptide fold change” value (50 µM) was -0.17.

In the case of “UHRF1BP1L_A0JNW5_618_HCPNCR (UniProt A0JNW5)”, the “probe-labelled cysteine peptide fold change” value (10 µM) was -0.304 and the “probe-labelled cysteine peptide fold change” value (50 µM) was 0.0935.

For “UBXN4_Q92575_186_SDTATGGESAGHATSSQEPSGCSDQRPAEDLNIR (UniProt Q92575)”, the “probe-labelled cysteine peptide fold change” value (10 µM) was 0.255 and the “probe-labelled cysteine peptide fold change” value (50 µM) was -0.267.

With “USP15_Q9Y4E8_570_DDIYVFEININRTEDTEHVIIPVCLR (UniProt Q9Y4E8)” the “probe-labelled cysteine peptide fold change” value (10 µM) was 0.305 and the “probe-labelled cysteine peptide fold change” value (50 µM) was 0.113.

For “UNC45A_Q9H3U1_800_AATECMCNLAMSK (UniProt Q9H3U1)”, the “probe-labelled cysteine peptide fold change” value (10 µM) was -0.0369 and the “probe-labelled cysteine peptide fold change” value (50 µM) was -0.147.

In the case of “UROD_P06132_66_SPEACCELTLQPLR (UniProt P06132)”, the “probe-labelled cysteine peptide fold change” value (10 µM) was -0.0484 and the “probe-labelled cysteine peptide fold change” value (50 µM) was -0.048.

“USP15_Q9Y4E8_570_TEDTEHVIIPVCLR (UniProt Q9Y4E8)” was tested, and the “probe-labelled cysteine peptide fold change” value (10 µM) was 0.0645 and the “probe-labelled cysteine peptide fold change” value (50 µM) was 0.269.

With “USP14_P54578_359_FPLMLDMYELCTPELQEK (UniProt P54578)” the “probe-labelled cysteine peptide fold change” value (10 µM) was -0.0993 and the “probe-labelled cysteine peptide fold change” value (50 µM) was -0.0838.

“USP15_Q9Y4E8_633_ISTETEETEGSLHCCK (UniProt Q9Y4E8)” was tested, and the “probe-labelled cysteine peptide fold change” value (10 µM) was 0.0331 and the “probe-labelled cysteine peptide fold change” value (50 µM) was -0.11.

With “UPF3A_Q9H1J1_315_QESCAPGAVVK (UniProt Q9H1J1)” the “probe-labelled cysteine peptide fold change” value (10 µM) was 0.021 and the “probe-labelled cysteine peptide fold change” value (50 µM) was 0.118.

“URB1_O60287_473_TVDHCLNK (UniProt O60287)” was tested, and the “probe-labelled cysteine peptide fold change” value (10 µM) was -0.0216 and the “probe-labelled cysteine peptide fold change” value (50 µM) was 0.35.

In the case of “UROS_P10746_73_AVEAAELCLEQNNK (UniProt P10746)”, the “probe-labelled cysteine peptide fold change” value (10 µM) was 0.0799 and the “probe-labelled cysteine peptide fold change” value (50 µM) was 0.073.

“UHRF1_Q96T88_497_TAEQSCDQK (UniProt Q96T88)” was tested, and the “probe-labelled cysteine peptide fold change” value (10 µM) was 0.0456 and the “probe-labelled cysteine peptide fold change” value (50 µM) was -0.184.

For “USP34_Q70CQ2_2062_DTLEGDNMYTCSHCGK (UniProt Q70CQ2)”, the “probe-labelled cysteine peptide fold change” value (10 µM) was 0.13 and the “probe-labelled cysteine peptide fold change” value (50 µM) was 0.0298.

“UBR7_Q8N806_424_VDGMQYYCS (UniProt Q8N806)” was tested, and the “probe-labelled cysteine peptide fold change” value (10 µM) was -0.00352 and the “probe-labelled cysteine peptide fold change” value (50 µM) was -0.294.

For UGDH_O60701_64_EVVESCR (UniProt O60701), the “probe-labelled cysteine peptide fold change” value (10 µM) was -0.031 and the “probe-labelled cysteine peptide fold change” value (50 µM) was 0.124.

With “UBR7_Q8N806_101_CDCGNSK (UniProt Q8N806)” the “probe-labelled cysteine peptide fold change” value (10 µM) was -0.0992 and the “probe-labelled cysteine peptide fold change” value (50 µM) was -0.0448.

With “UFC1_Q9Y3C8_116_ICLTDHFK (UniProt Q9Y3C8)” the “probe-labelled cysteine peptide fold change” value (10 µM) was -0.127 and the “probe-labelled cysteine peptide fold change” value (50 µM) was -0.0548.

With “USP40_Q9NVE5_1054_RIEICLEPLQK (UniProt Q9NVE5)” the “probe-labelled cysteine peptide fold change” value (10 µM) was -0.132 and the “probe-labelled cysteine peptide fold change” value (50 µM) was -0.0534.

With “USP4_Q13107_500_VMEVFLVPADPHCRPTQYR (UniProt Q13107)” the “probe-labelled cysteine peptide fold change” value (10 µM) was -0.0635 and the “probe-labelled cysteine peptide fold change” value (50 µM) was 0.0146.

“UPF2_Q9HAU5_687_NDTLHCLK (UniProt Q9HAU5)” was tested, and the “probe-labelled cysteine peptide fold change” value (10 µM) was 0.00638 and the “probe-labelled cysteine peptide fold change” value (50 µM) was 0.0602.

For “USP47_Q96K76_856_AGGDSGNVDDDCER (UniProt Q96K76)”, the “probe-labelled cysteine peptide fold change” value (10 µM) was 0.0394 and the “probe-labelled cysteine peptide fold change” value (50 µM) was -0.0113.

— the supplement of paper PMC12067093, “Discovery and optimisation of a covalent ligand for TRIM25 and its application to targeted protein ubiquitination” (Chemical Science, 2025)
